Results are given in words; binding and its absence hold for the method and conditions named. Some binding calls cover weakened binding; strength is not graded here. Where a sequence is shown, tags or fusion partners need not be part of it.
Columns and labels:
[1] = target: p53 (p73βaa345-390) (human) (UniProt O15350); assay: anti-Flag IP, anti-GFP Western
[2] = target: T1, Flag-tagged p73β (UniProt O15350); assay: anti-Flag IP, anti-GFP Western
T1 sequence (looked up): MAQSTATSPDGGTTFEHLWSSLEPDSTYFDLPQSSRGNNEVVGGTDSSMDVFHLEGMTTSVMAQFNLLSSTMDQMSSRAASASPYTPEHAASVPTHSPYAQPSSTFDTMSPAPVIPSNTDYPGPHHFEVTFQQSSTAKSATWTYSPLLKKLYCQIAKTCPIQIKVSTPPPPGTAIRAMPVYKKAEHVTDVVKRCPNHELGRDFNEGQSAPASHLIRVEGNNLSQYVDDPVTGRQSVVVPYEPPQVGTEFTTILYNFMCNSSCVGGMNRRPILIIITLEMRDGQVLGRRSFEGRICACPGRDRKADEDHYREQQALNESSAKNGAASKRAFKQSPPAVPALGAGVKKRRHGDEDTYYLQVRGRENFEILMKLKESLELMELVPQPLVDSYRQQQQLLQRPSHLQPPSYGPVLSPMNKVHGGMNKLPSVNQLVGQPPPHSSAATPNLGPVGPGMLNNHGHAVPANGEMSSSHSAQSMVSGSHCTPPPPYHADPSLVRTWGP

B1: GFP-tagged p73 (protein, not shown: large carriers)
chain: MAQSTATSPDGGTTFEHLWSSLEPDSTYFDLPQSSRGNNEVVGGTDSSMDVFHLEGMTTSVMAQFNLLSSTMDQMSSRAASASPYTPEHAASVPTHSPYAQPSSTFDTMSPAPVIPSNTDYPGPHHFEVTFQQSSTAKSATWTYSPLLKKLYCQIAKTCPIQIKVSTPPPPGTAIRAMPVYKKAEHVTDVVKRCPNHELGRDFNEGQSAPASHLIRVEGNNLSQYVDDPVTGRQSVVVPYEPPQVGTEFTTILYNFMCNSSCVGGMNRRPILIIITLEMRDGQVLGRRSFEGRICACPGRDRKADEDHYREQQALNESSAKNGAASKRAFKQSPPAVPALGAGVKKRRHGDEDTYYLQVRGRENFEILMKLKESLELMELVPQPLVDSYRQQQQLLQRPSHLQPPSYGPVLSPMNKVHGGMNKLPSVNQLVGQPPPHSSAATPNLGPVGPGMLNNHGHAVPANGEMSSSHSAQSMVSGSHCTPPPPYHADPSLVSFLTGLGCPNCIEYFTSQGLQSIYHLQNLTIEDLGALKIPEQYRMTIWRGLQDLKQGHDYSTAQQLLRSSNAATISIGGSGELQRQRVMEAVHFRVRHTITIPNRGGPGGGPDEWADFGFDLPDCKARKQPIKEEFTEAEIH
[1]
  binding: binds
[2]
  binding: binds

From patent publication US20020132977A1
